# Percent effect of library compounds

Chains of the proteins cited; added tags and fusions are not shown. Residues count along the entry.
UniProt P9WNZ1, whole entry: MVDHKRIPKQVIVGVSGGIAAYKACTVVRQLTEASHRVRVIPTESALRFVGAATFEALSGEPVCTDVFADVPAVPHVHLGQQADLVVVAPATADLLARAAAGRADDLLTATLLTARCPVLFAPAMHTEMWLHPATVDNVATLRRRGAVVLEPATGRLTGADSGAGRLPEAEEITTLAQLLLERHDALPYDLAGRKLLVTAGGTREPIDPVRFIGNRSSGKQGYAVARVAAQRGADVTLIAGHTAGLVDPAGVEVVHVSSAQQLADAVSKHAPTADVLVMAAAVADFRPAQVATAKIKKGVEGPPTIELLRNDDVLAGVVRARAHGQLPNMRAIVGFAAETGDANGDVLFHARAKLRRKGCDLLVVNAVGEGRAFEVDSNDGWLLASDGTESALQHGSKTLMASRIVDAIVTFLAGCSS
UniProt I6X8D2, whole entry: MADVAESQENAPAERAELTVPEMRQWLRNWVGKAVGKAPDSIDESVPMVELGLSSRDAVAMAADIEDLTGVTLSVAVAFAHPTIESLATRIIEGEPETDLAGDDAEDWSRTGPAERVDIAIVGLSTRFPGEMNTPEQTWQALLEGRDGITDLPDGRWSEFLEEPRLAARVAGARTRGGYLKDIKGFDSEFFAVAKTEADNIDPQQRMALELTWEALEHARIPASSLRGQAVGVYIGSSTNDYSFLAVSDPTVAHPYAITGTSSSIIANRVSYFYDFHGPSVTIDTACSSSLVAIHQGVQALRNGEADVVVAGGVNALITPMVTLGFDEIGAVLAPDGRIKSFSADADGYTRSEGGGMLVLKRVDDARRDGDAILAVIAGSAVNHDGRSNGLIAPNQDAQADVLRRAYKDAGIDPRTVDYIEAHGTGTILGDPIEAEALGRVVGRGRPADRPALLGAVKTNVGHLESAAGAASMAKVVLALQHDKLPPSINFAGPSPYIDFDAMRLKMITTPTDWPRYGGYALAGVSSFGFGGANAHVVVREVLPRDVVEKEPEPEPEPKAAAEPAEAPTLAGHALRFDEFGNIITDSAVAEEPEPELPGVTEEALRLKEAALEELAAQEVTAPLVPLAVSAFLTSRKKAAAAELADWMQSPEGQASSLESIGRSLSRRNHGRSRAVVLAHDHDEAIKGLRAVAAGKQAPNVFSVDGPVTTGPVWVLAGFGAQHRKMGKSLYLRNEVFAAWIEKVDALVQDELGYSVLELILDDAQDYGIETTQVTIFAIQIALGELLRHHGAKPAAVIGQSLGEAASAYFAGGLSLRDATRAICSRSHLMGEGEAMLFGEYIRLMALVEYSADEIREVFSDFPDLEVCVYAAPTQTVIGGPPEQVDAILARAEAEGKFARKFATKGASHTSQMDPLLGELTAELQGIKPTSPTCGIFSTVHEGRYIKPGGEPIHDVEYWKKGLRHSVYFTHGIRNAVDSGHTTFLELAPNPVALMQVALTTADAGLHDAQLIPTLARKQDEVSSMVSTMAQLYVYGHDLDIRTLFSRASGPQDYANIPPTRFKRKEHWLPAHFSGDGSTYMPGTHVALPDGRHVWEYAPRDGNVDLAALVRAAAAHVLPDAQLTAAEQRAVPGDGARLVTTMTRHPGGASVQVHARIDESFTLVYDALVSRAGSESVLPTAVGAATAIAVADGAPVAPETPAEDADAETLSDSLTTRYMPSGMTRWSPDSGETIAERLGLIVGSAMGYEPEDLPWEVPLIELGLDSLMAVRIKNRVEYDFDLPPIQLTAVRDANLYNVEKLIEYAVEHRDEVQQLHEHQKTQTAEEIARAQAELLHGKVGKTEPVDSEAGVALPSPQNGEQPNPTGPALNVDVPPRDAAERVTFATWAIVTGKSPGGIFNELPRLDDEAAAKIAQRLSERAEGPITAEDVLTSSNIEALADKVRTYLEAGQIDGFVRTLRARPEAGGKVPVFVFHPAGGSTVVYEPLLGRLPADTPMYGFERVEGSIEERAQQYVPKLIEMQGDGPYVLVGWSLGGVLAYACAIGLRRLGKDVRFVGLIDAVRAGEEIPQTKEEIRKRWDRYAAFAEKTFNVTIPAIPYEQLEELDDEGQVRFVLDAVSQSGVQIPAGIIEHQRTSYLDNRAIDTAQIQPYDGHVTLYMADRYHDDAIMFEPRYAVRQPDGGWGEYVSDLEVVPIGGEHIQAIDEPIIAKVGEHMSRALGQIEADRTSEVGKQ
UniProt P9WPC5, whole entry: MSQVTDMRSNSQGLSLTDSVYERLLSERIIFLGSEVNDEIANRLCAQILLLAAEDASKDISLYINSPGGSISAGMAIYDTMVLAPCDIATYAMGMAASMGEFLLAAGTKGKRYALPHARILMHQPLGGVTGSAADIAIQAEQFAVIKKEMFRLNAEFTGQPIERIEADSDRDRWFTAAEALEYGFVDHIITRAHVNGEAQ
UniProt P9WPC3, whole entry partner: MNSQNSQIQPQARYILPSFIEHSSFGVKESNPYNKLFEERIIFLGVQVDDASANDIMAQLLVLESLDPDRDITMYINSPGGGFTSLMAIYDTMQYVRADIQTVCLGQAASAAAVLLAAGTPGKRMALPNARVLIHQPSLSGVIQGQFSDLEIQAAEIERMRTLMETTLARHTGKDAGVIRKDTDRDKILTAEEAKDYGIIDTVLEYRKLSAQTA
UniProt Q4DA54, 1-478: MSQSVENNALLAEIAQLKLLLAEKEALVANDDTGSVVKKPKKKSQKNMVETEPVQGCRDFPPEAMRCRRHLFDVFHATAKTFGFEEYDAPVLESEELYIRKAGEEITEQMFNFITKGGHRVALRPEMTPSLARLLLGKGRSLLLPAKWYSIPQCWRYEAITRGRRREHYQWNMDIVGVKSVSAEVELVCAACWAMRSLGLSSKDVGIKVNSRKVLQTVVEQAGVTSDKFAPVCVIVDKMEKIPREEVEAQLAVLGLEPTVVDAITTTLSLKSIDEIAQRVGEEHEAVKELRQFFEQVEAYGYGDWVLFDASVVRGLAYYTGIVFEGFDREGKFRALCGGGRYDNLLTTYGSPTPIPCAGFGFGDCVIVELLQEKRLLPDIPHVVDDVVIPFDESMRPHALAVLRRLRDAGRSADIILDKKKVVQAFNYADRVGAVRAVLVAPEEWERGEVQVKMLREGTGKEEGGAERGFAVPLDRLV

A: 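Coenzyme A biosynthesis protein CoaBC, Mycobacterium tuberculosis (UniProt P9WNZ1). Enzyme assay of CoaBC with a phosphate dye (Biomol Green) read at 650 nm. Concentration: 30 µM. Higher reads as stronger inhibition, judged from the few compounds that gave an IC50. Most strong results did not repeat in a second test. About 67,000 compounds were tested under these conditions; 0.06% (about 40) showed 50% or more at least once.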
B: 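Cell assay of Leishmania donovani living inside macrophages; the read-out is not stated. Concentration: 30 µM. The record gives no direction; compounds that gave an IC50 in retests scored well above the rest, so higher reads as stronger inhibition. Of about 69,000 compounds tested this way, about 1,000 (1.5%) reached 50% or more in at least one test.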
C: 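Enzyme assay of the thioesterase domain of polyketide synthase 13; the read-out is not stated. Target: Polyketide synthase Pks13, Mycobacterium tuberculosis (UniProt I6X8D2). Concentration: 30 µM. The record gives no direction; the compounds picked for IC50 retests had high values, so higher reads as stronger inhibition. About 67,000 compounds were tested under these conditions; 0.46% (about 300) showed 50% or more at least once.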
D: 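ClpP1P2, Mycobacterium tuberculosis (UniProt P9WPC5 and UniProt P9WPC3). Protease assay of ClpP1P2, read by the AMC dye that it sets free. Tested at 50 µM. Higher reads as stronger inhibition, judged from the few compounds that gave an IC50. Most other retested compounds had strongly negative values. Size under these conditions: about 69,000 compounds, about 10 of them at 50% or above in at least one test.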
E: 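Enzyme assay of histidyl-tRNA synthetase; the read-out is not stated. Target: Histidine-tRNA ligase, Trypanosoma cruzi CL Brener (UniProt Q4DA54). Concentration: 30 µM. The record gives no direction; compounds that gave an IC50 in retests scored well above the rest, so higher reads as stronger inhibition. Of about 69,000 compounds tested this way, about 31 (0.045%) reached 50% or more in at least one test.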

Values are the deposited “Percent Effect”, in %. How 0% and 100% were set is not recorded. Most values in the screen are low, and negative values occur. The compounds are a random part of those screened. Two or more numbers in one place are separate tests of the same structure; such repeats can differ widely.

SMILES: Cc1ccc(OCC2CCCN(c3nc(CO)cs3)C2)cc1 (stereo not given)
A: 10.1
B: 28.11
C: 7.801
D: 7.27
E: 14.14

SMILES: Cc1cc(=O)n(C)cc1NC(=O)Cc1cccc(F)c1
A: 4.156
B: 23.34
C: -7.17
D: -5.099
E: 14.21

SMILES: Cc1c(C(=O)N2CCCOCC2)nnn1-c1cccc2cnccc12
A: 1.442
B: -23.51
C: -9.526
D: -10.17
E: 5.063

SMILES: NC(=O)NC(=O)C(c1ccccc1)N1CCN(Cc2ccsc2)CC1 (stereo not given)
A: -2.641
B: -6.282
C: 4.284
D: -14.88
E: 6.14

SMILES: COCCN1CCC(c2cncc(N(C)C)n2)CC1
A: -1.961
B: -4.283
C: -16.74
D: 18.97
E: 3.191

SMILES: CCNC(=O)CNC(=O)c1ccn(S(=O)(=O)c2ccc(C)cc2)c1
A: 8.068
B: -55.47
C: -23.78
D: 1.663
E: 6.557

SMILES: Cc1nc(CNC(=O)Nc2ccc3c(ccn3CCN(C)C)c2)no1
A: -2.484
B: 16.27
C: -13.56
D: -2.305
E: -1.538

SMILES: COCc1ccccc1CNc1cc(N2CCCC2CO)ncn1 (stereo not given)
A: 3.373
B: 29.91
C: -15.72
D: 1.268
E: 2.29

SMILES: [H][C@@]12CN(C(=O)NC3CCCC3)C[C@]1(C(=O)O)CN(c1ccc(C)nn1)C2
B: 17.2

SMILES: O=S1(=O)CCC(n2nc(Cc3cccs3)nc2-c2cnccn2)C1 (stereo not given)
A: 3.257
B: -43.77
C: -22.75
D: -9.393
E: -2.513

SMILES: O=S(=O)(C1CC1)N1CCCC2(COCCN(c3nncs3)C2)C1 (stereo not given)
A: 1.018
B: 1.838
C: 17.32
D: 15.29
E: 6.897

SMILES: Cc1nnsc1C(=O)NCc1nn(C)c2c1COCC2
A: -0.2554
B: -21.41
C: -26.49
D: -0.9176
E: -1.212

SMILES: O=C([C@H]1C[C@H]2OCC[C@H]2N(C(=O)c2ccncc2)C1)N1CCCC1
A: 4.56
C: -24.32
D: -8.777
E: 5.882

SMILES: Cc1cc(NCCO)nc(N2CCC(Cc3ccccc3)CC2)c1C#N.O=C(O)C(=O)O
B: 21.1

SMILES: O=C(Nc1ccccc1)c1ccc(NCc2nccs2)nn1
B: 13.85
C: -40.16
D: 1.832
E: 5.732

SMILES: c1cnc(-c2nc(CN3CCC(c4ccn[nH]4)CC3)cs2)nc1
A: 8.769
B: 40.49
C: -11.39
D: 7.637
E: 1.916

SMILES: Fc1cccc(-c2nnn3c2COC(CNCc2ccsc2)C3)c1 (stereo not given)
A: -14.66
D: -10.25
E: 8.824

SMILES: Cc1nn(C)c(C)c1CN(C)c1nc(C2CCCC2)nc2c1cnn2C
A: 2.527
B: 17.71
C: -17.14
D: -4.543
E: 1.508

SMILES: NC(=O)NC(CC(=O)NCCc1cccc(F)c1)c1cccs1 (stereo not given)
A: -2.457
B: 7.762
C: -7.851
D: -3.086
E: -29.63

SMILES: COc1ccccc1CC(=O)N1CCC(OCc2cccnc2)CC1
A: 1.788
B: 5.945
C: -36.96
D: -3.429
E: 3.636

SMILES: Cc1occc1C(=O)N1CCCC(C2=Nc3ccccc3S(=O)(=O)N2)C1 (stereo not given)
A: -15.74
B: 10.67
C: -7.988
D: -20.52
E: 4.52

SMILES: CCOC(=O)N1CCN(C(=O)c2cc(-c3ccc(Cl)cc3Cl)on2)CC1
A: 12.74
B: 18.25
C: -16.37
D: -3.253
E: -3.509

SMILES: O=C(O)C(F)(F)F.[H][C@@]12CCN(Cc3scnc3C)C[C@]1(C(=O)NCCOC)CCO2
B: 28.89 and -9.135

SMILES: O=C(O)C(F)(F)F.[H][C@@]12CCN(CC3CCOCC3)C[C@@]1([H])[C@H](C(=O)N1CCCO1)CCO2
B: -2.133

SMILES: CN(CCc1ccccc1)Cc1c(C2CCNCC2)[nH]c2ncccc12.Cl
B: 2.19

Some entries from above, unchanged:

{"smiles": "CCNC(=O)CNC(=O)c1ccn(S(=O)(=O)c2ccc(C)cc2)c1", "A": 8.068, "B": -55.47, "C": -23.78, "D": 1.663, "E": 6.557}
{"smiles": "Cc1c(C(=O)N2CCCOCC2)nnn1-c1cccc2cnccc12", "A": 1.442, "B": -23.51, "C": -9.526, "D": -10.17, "E": 5.063}

From ChEMBL document CHEMBL3988442, “University of Dundee, Small-Polar-MMV Screening Library” (2021).